Experimental findings from PMC7819943, “Rice protein-binding microarrays: a tool to detect cis-acting elements near promoter regions in rice” are described below.

Protein sequences, listed by entry. Tags and fused reporters are not part of them.
UniProt Q0JBA9, entry or part of it: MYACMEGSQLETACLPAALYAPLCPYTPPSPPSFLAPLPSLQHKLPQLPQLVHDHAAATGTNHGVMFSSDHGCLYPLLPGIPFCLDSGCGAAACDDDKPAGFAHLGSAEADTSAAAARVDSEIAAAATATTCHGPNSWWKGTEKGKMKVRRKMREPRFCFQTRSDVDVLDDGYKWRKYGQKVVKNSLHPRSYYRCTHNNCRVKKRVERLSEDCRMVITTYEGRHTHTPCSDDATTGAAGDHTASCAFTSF

This is one part of the list.

The test addresses OsWRKY34 (Oryza sativa, UniProt Q0JBA9 1-250). Description: protein-binding microarray (RPBM); PBS, 2% BSA, 51.3 ng/ul salmon testes DNA, 50 uM zinc acetate, 200 nM TF, 25 C, 1 h; high values mean tight binding. Particulars: protein: recombinant; tags: N-terminal polyhistidine and DsRed monomer fusion (pET32a); label: CyDye5-dUTP incorporated in the synthesized complementary strand; 3' TTTTT single-stranded linker to array surface; dsDNA, one strand shown. In a few lines: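 Transcription factors were each fused at the N-terminus to a polyhistidine tag plus DsRed and expressed in E. coli BL21-CodonPlus before Ni–NTA purification. Binding to a double-stranded custom Agilent array was carried out with 200 nM protein at 25 °C for 1 h in PBS, 2% BSA, salmon testes DNA and 50 µM zinc acetate. The binding signal is per-feature fluorescence intensity, in arbitrary units, on an Axon 4000B scanner.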
Regarding “CTTCTTCTTCTTCTTCTTCTTGGTCCGGAGAGAGTAGAGACGGAGTCACCTAGTGCAG”, the binding signal is 8090 fluorescence intensity (a.u.). Take “TATTCTGTTGTATTATGATATTATATATATTTTTCTTCGACGGAGTCACCTAGTGCAG”: the binding signal is 8980 fluorescence intensity (a.u.). For “CTGGTTGACTATGGTTGTGTTTAGTTTCCTTCAAACTTCACGGAGTCACCTAGTGCAG”, the binding signal is 10600 fluorescence intensity (a.u.). For “GAATGCTCTTTCTGTTGCTGCAATTCATTTCATAGCCCATCGGAGTCACCTAGTGCAG”, the binding signal was 8640 fluorescence intensity (a.u.). On to “CAGCCACCTCTCCATCTTCTGTCCGTTCACCTCTCCGTAACGGAGTCACCTAGTGCAG”, for which the binding signal is 12600 fluorescence intensity (a.u.). “GATATTCCTCTGGTCGTTCGCATCTACGCCGCCGCCGCCGCGGAGTCACCTAGTGCAG”: the binding signal was 11300 fluorescence intensity (a.u.). For the sequence “GCGTATCTGTCGTATTGGGCTTGGGCCGTCCGCAACTTTCCGGAGTCACCTAGTGCAG”, the binding signal was 11500 fluorescence intensity (a.u.).

Take “GGGATTTTGTGTTTTTGGTTTTTCTGGAGGGTGCAGAAGGCGGAGTCACCTAGTGCAG”: the binding signal was 14700 fluorescence intensity (a.u.).

Take “TCAGCGTTGTGTGTTAGGTTATGTTTTTTTTTCTCTCTTTCGGAGTCACCTAGTGCAG”: the binding signal is 9190 fluorescence intensity (a.u.). Regarding “CCATCCTGCATCCTCCCATGACCACCCGCCACGTCTCGCCCGGAGTCACCTAGTGCAG”, the binding signal was 10400 fluorescence intensity (a.u.). Regarding “TATCATTAATGTTTCCTATTGTTTGTTTTGTTTGTGTCTCCGGAGTCACCTAGTGCAG”, the binding signal was 9530 fluorescence intensity (a.u.). As to “TTGTTTTGTTTGTCTTGTTTCGATTTGTGGTTTAAATTGACGGAGTCACCTAGTGCAG”, the binding signal is 8020 fluorescence intensity (a.u.). As to “GCTCCAATTGACTGTTCCTTGATGCTCATACCATCTTTGTCGGAGTCACCTAGTGCAG”, the binding signal is 11600 fluorescence intensity (a.u.). On to “CCTGACCAACACTACCACATGCCGACTTCGCCGCAAACCGCGGAGTCACCTAGTGCAG”, for which the binding signal was 8430 fluorescence intensity (a.u.). In the case of “TACAGCTGCACGTGCTGATTCGGTTTGTTGCTATCCTCTTCGGAGTCACCTAGTGCAG”, the binding signal is 11000 fluorescence intensity (a.u.). The same measure for “TCTCTATCCTCTCTCTCCATCTTCTCTCTATCTCTCTCTCCGGAGTCACCTAGTGCAG”: 9210 fluorescence intensity (a.u.); for “ATCTCTCTCATCTAATTCCTACGTTTTTCCTGCGCTCCAACGGAGTCACCTAGTGCAG”: 9500 fluorescence intensity (a.u.); for “CGAACACTTCACCCCATTCCCTTATTTTTATTTATTTATTCGGAGTCACCTAGTGCAG”: 8080 fluorescence intensity (a.u.).

For the sequence “TTGCTTGCTTCCTTTGCTTTCACTCCTGCTGCTCGGCTCACGGAGTCACCTAGTGCAG”, the binding signal was 8160 fluorescence intensity (a.u.). Consider “TCTCGTTTGCACTGATTTTGTAAGTTGGGGTCATGTTGTACGGAGTCACCTAGTGCAG”, for which the binding signal is 13500 fluorescence intensity (a.u.).

On to “CGCTGTCTGTTGCCACCATTAATGGCTGGCTCCGTGGGTACGGAGTCACCTAGTGCAG”, for which the binding signal is 8580 fluorescence intensity (a.u.).

For “ACACCCAAAGCAACTCCATGCATGTTCCTTTTTCTTACCACGGAGTCACCTAGTGCAG”, the binding signal was 10300 fluorescence intensity (a.u.). For “TCGTTGCCGCTGCTGCTGGGTCGCTGCCCGCTGTCCCGTCCGGAGTCACCTAGTGCAG”, the binding signal is 9250 fluorescence intensity (a.u.).

As for “AACCGACTTTGCGCAACCTAGATCGAAACTTCATCGTTACCGGAGTCACCTAGTGCAG”, the binding signal was 8980 fluorescence intensity (a.u.). As for “AACATCAATATCACTACCTTCACTTTGGTCTTATACAAGTCGGAGTCACCTAGTGCAG”, the binding signal was 9020 fluorescence intensity (a.u.). On to “GAGCCACTCGGAATTCGCCTCCTCCCGCGCCGCCGCCGGCCGGAGTCACCTAGTGCAG”, for which the binding signal is 9380 fluorescence intensity (a.u.). As for “TACTTGTAGAACGCAAACCTGTTCGTCCATGTCGCGTTCTCGGAGTCACCTAGTGCAG”, the binding signal is 8030 fluorescence intensity (a.u.). Regarding “CACTGTCATTCACTCAGTCCTGGGAGTGTTGTTATTCTCGCGGAGTCACCTAGTGCAG”, the binding signal was 12300 fluorescence intensity (a.u.). Regarding “CCATGGCCTTCTTGTCGGTCTCGGTGTTTTTTTTTTTTACCGGAGTCACCTAGTGCAG”, the binding signal was 12300 fluorescence intensity (a.u.). As for “AGTTGGTTTTGGCAGATATTTCAAGTGGCACTTCTGTTTTCGGAGTCACCTAGTGCAG”, the binding signal is 8590 fluorescence intensity (a.u.). Turning to “GCTTCTTCTTCCCTCTCTCTTTCTCTCTCTCTCTTTTTTTCGGAGTCACCTAGTGCAG”, the binding signal was 10000 fluorescence intensity (a.u.). The same measure for “TCTCCTCCACCTTGCTTGTACCCGCATCCACCTCCTCACCCGGAGTCACCTAGTGCAG”: 9140 fluorescence intensity (a.u.); for “AACCCATCGTCTGCTGCCTATAAATAGATCACCTCCTTTCCGGAGTCACCTAGTGCAG”: 8690 fluorescence intensity (a.u.); for “AGTAGCAGGTTCAGGTTGTTGATAACGATGGACTAATAATCGGAGTCACCTAGTGCAG”: 8420 fluorescence intensity (a.u.). In the case of “AGTAGTTGCTACTGGGTATTTGGACTCTTCCTCTCAGAGACGGAGTCACCTAGTGCAG”, the binding signal is 8470 fluorescence intensity (a.u.). The same measure for “TCACCCTTGAGCCCCGCGCGCCATCATGTCGTCCTCGAGCCGGAGTCACCTAGTGCAG”: 9080 fluorescence intensity (a.u.); for “TGTTCTGCCGGGGTTGTTGCTTACTGATGCAAAACTCTTTCGGAGTCACCTAGTGCAG”: 9240 fluorescence intensity (a.u.). The value for “CCTCGCCTACTTGGGTTCCGTTCTACCACCATCTTTTAGGCGGAGTCACCTAGTGCAG” was 10800 fluorescence intensity (a.u.); that for “AGTGTGGCGAGTAGTAGTGGTATTCCCCTCTTGGTCTTGGCGGAGTCACCTAGTGCAG” was 8190 fluorescence intensity (a.u.).

Take “GCTTTTCTTTGTCCATCCATCTATCTTTTTCTCCATCTTTCGGAGTCACCTAGTGCAG”: the binding signal was 8440 fluorescence intensity (a.u.). The value for “GCCGCCAGATCCAGCAGGGGCGGGAGGGGAGGCGTGTCCGCGGAGTCACCTAGTGCAG” was 13100 fluorescence intensity (a.u.); that for “CCTGAGTTTTTGAAAATTAAGGGTTGGGTCTTCTTTGAACCGGAGTCACCTAGTGCAG” was 14400 fluorescence intensity (a.u.).
